Measured data: PubChem BioAssay AID743454 (Peter MacCallum Cancer Centre, 2014)
The whole screen tested about 18,000 reagents; below is a random part of them. Of all reagents, 450 (2.5%) were called active. 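Single biological run; no consistent viability z cut-off exists, so the class columns, not z-scores, define the calls.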 A number with no mark means an inactive call.

Test: 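Search for knock-downs that restore vorinostat killing in resistant colon cancer cells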 (primary screen)
Cell system: human HCT116-VR colon cancer cells, selected for vorinostat resistance
Reagents: siRNA pool against human genes, 40 nM siRNA pool
Duration: vorinostat for 24 h, read-out about 72 h after transfection
Treatment: vorinostat at 2.5 µM final
Read-out: 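Cell viability by CellTiter-Fluor and caspase 3/7 activity by luminescence, each scaled to mock wells per plate, duplicates averaged, then robust z-scored over all plates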
Reading the numbers: viability robust z-score: higher = more viable cells than screen typical; caspase robust z-score: higher = more caspase 3/7 activity than screen typical
Call rule: 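Hits are knock-downs in viability class RV1/RV2 or caspase class CA1/CA2, excluding ones that killed cells in the no-drug cell-count arm; hits then retested with single siRNAs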

PRKCH (GeneID 5583) → viability hit class = no change; caspase hit class = no change; viability robust z-score = -0.42; caspase robust z-score = -0.8
GIPC2 (GeneID 54810) → viability hit class = no change; caspase hit class = no change; viability robust z-score = -0.15; caspase robust z-score = -0.28
RBM15 (GeneID 64783) → viability hit class = no change; caspase hit class = no change; viability robust z-score = -1.39; caspase robust z-score = -0.9
OR4A16 (GeneID 81327) → viability hit class = no change; caspase hit class = no change; viability robust z-score = 0.57; caspase robust z-score = -0.98
ZNF816 (GeneID 125893) → viability hit class = no change; caspase hit class = no change; viability robust z-score = 1.94; caspase robust z-score = -0.34
AR (GeneID 367) → viability hit class = no change; caspase hit class = no change; viability robust z-score = 0.82; caspase robust z-score = -0.12
PITX1 (GeneID 5307) → viability hit class = no change; caspase hit class = no change; viability robust z-score = -0.43; caspase robust z-score = -0.11
PCED1A (GeneID 64773) → viability hit class = no change; caspase hit class = no change; viability robust z-score = -1.44; caspase robust z-score = -0.39
OR10S1 (GeneID 219873) → viability hit class = no change; caspase hit class = no change; viability robust z-score = -0.5; caspase robust z-score = 3.08
CPZ (GeneID 8532) → viability hit class = no change; caspase hit class = no change; viability robust z-score = -1.21; caspase robust z-score = 0.23
ATAD3A (GeneID 55210) → viability hit class = no change; caspase hit class = no change; viability robust z-score = -0.92; caspase robust z-score = -0.36
LINC00174 (GeneID 285908) → viability hit class = no change; caspase hit class = no change; viability robust z-score = -0.38; caspase robust z-score = 1.8
SCML1 (GeneID 6322) → viability hit class = no change; caspase hit class = no change; viability robust z-score = 0.26; caspase robust z-score = -0.43
SCGB3A1 (GeneID 92304) → viability hit class = no change; caspase hit class = no change; viability robust z-score = -0.85; caspase robust z-score = -0.62
SLFN13 (GeneID 146857) → viability hit class = no change; caspase hit class = no change; viability robust z-score = -1.16; caspase robust z-score = 2.79
LINC00477 (GeneID 144360) → viability hit class = no change; caspase hit class = no change; viability robust z-score = -0.96; caspase robust z-score = 1.56
BCL2L13 (GeneID 23786) → viability hit class = no change; caspase hit class = no change; viability robust z-score = 0.57; caspase robust z-score = -0.22
POLR2G (GeneID 5436) → viability hit class = no change (active); caspase hit class = CA2 (caspase activation); viability robust z-score = -3; caspase robust z-score = 5.93
MLIP (GeneID 90523) → viability hit class = no change (active); caspase hit class = CA2 (caspase activation); viability robust z-score = -2.27; caspase robust z-score = 6.08
ARL6IP6 (GeneID 151188) → viability hit class = no change; caspase hit class = no change; viability robust z-score = -0.12; caspase robust z-score = 2.75
SLFN11 (GeneID 91607) → viability hit class = no change; caspase hit class = no change; viability robust z-score = 1.36; caspase robust z-score = -0.83

A portion of the results above, as a working copy:
ZNF816 (GeneID 125893) → viability hit class = no change; caspase hit class = no change; viability robust z-score = 1.94; caspase robust z-score = -0.34
AR (GeneID 367) → viability hit class = no change; caspase hit class = no change; viability robust z-score = 0.82; caspase robust z-score = -0.12
